Chains of the proteins cited; added tags and fusions are not shown. Lines headed by an entry give the natural chain unless they say otherwise; changes in a name come on top. Residues count along the entry.
UniProt P0C0S6: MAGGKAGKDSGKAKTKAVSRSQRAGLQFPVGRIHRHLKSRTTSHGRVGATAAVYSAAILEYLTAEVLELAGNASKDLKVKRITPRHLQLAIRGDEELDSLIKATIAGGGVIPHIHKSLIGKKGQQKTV
UniProt Q8K2B3, residues 43-664: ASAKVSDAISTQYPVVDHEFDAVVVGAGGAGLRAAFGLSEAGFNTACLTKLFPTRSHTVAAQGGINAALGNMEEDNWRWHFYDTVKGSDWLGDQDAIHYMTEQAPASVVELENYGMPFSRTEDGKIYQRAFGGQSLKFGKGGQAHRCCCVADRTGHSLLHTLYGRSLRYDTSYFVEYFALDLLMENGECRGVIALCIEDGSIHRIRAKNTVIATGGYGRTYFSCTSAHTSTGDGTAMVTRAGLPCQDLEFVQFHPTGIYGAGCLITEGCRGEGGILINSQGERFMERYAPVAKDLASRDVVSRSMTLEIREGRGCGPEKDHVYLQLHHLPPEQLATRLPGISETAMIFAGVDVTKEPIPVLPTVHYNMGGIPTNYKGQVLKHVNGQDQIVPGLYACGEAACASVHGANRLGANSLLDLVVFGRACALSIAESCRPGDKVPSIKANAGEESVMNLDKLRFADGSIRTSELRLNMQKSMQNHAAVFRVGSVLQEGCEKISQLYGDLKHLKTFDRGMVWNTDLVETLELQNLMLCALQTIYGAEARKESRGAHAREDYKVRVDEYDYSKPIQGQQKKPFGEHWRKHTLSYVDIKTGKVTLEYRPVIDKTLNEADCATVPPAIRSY
UniProt Q8BMS1, residues 37-763: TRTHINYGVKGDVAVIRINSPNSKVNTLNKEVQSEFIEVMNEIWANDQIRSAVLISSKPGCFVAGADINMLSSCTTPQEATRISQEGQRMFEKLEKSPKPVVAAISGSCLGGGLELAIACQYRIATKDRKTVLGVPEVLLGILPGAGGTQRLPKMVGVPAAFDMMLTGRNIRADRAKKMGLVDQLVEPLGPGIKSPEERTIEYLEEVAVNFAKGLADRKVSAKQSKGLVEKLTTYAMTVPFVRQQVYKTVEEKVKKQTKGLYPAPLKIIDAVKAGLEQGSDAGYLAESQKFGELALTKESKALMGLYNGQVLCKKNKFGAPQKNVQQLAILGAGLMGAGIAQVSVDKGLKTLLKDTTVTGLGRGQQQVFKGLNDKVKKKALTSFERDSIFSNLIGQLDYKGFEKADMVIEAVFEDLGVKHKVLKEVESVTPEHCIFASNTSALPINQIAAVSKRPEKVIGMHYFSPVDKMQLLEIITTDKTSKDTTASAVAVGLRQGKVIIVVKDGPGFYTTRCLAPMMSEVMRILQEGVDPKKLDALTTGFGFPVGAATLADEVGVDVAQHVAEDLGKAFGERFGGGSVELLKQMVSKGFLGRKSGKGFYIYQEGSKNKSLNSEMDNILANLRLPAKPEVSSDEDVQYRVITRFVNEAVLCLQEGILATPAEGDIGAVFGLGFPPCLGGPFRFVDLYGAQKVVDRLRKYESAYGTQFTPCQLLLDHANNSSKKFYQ

According to publication doi:10.1101/553297:

molecular target: histone variant H2A.Z (mouse (endogenous in mouse heart)) (UniProt P0C0S6); assay: affinity purification with mass spectrometry

| Molecule | binding |
| --- | --- |
| enoyl-CoA delta isomerase 1 (enzyme, UniProt P42125 29-289) FANKRVLVETEGPAGVAVMKLRNPPVNSLSLECLTEFTISLEKLENDKSIRGVILTSECPGIFSAGLDLLEMYGRNPAHYAEYWKNVQELWLRLYTSNMILVSAINGASPAGGCLLALCCDYRVMADNPKYTIGLNESLLGIVAPFWFKDMYVNTIGHREAERALQLGTLFSPAEALKVGVVDEVVPEDQVHSKARSVMTKWLAIPDHSRQLTKNMMRKATADNLIKQREADIQNFTSFISKDSIQKSLHMYLEKLKQKKG | binds |
| acetyl-CoA acyltransferase 2 (enzyme, UniProt Q8BWT1 1-397) MALLRGVFIVAAKRTPFGAYGGLLKDFSATDLTEFAARAALSAGKVPPETIDSVIVGNVMQSSSDAAYLARHVGLRVGVPTETGALTLNRLCGSGFQSIVSGCQEICSKDAEVVLCGGTESMSQSPYCVRNVRFGTKFGLDLKLEDTLWAGLTDQHVKLPMGMTAENLAAKYNISREDCDRYALQSQQRWKAANEAGYFNEEMAPIEVKTKKGKQTMQVDEHARPQTTLEQLQKLPSVFKKDGTVTAGNASGVSDGAGAVIIASEDAVKKHNFTPLARVVGYFVSGCDPTIMGIGPVPAINGALKKAGLSLKDMDLIDVNEAFAPQFLSVQKALDLDPSKTNVSGGAIALGHPLGGSGSRITAHLVHELRRRGGKYAVGSACIGGGQGIALIIQNTA | binds |

Results, then the molecule that gave them:

| binding | Molecule |
| --- | --- |
| binds | succinate dehydrogenase complex, subunit b (enzyme, UniProt Q9CQA3 31-282) AQTAAAAAPRIKKFAIYRWDPDKTGDKPRMQTYEVDLNKCGPMVLDALIKIKNEVDSTLTFRRSCREGICGSCAMNINGGNTLACTRRIDTDLSKVSKIYPLPHMYVIKDLVPDLSNFYAQYKSIEPYLKKKDESQEGKQQYLQSIEDREKLDGLYECILCACCSTSCPSYWWNGDKYLGPAVLMQAYRWMIDSRDDFTEERLAKLQDPFSVYRCHTIMNCTQTCPKGLNPGKAIAEIKKMMATYKEKRALA |
| binds | pyruvate dehydrogenase A1 (enzyme, UniProt P35486 30-390) FANDATFEIKKCDLHRLEEGPPVTTVLTREDGLKYYRMMQTVRRMELKADQLYKQKIIRGFCHLCDGQEACCVGLEAGINPTDHLITAYRAHGFTFTRGLPVRAILAELTGRRGGCAKGKGGSMHMYAKNFYGGNGIVGAQVPLGAGIALACKYNGKDEVCLTLYGDGAANQGQIFEAYNMAALWKLPCIFICENNRYGMGTSVERAAASTDYYKRGDFIPGLRVDGMDILCVREATKFAAAYCRSGKGPILMELQTYRYHGHSMSDPGVSYRTREEIQEVRSKSDPIMLLKDRMVNSNLASVEELKEIDVEVRKEIEDAAQFATADPEPPLEELGYHIYSSDPPFEVRGANQWIKFKSVS |
| binds | oxoglutarate dehydrogenase (enzyme, UniProt Q60597 41-1023) SAPVAAEPFLSGTSSNYVEEMYCAWLENPKSVHKSWDIFFRNTNAGAPPGTAYQSPLSLSRSSLATMAHAQSLVEAQPNVDKLVEDHLAVQSLIRAYQIRGHHVAQLDPLGILDADLDSSVPADIISSTDKLGFYGLHESDLDKVFHLPTTTFIGGQEPALPLREIIRRLEMAYCQHIGVEFMFINDLEQCQWIRQKFETPGIMQFTNEEKRTLLARLVRSTRFEEFLQRKWSSEKRFGLEGCEVLIPALKTIIDMSSANGVDYVIMGMPHRGRLNVLANVIRKELEQIFCQFDSKLEAADEGSGDMKYHLGMYHRRINRVTDRNITLSLVANPSHLEAADPVVMGKTKAEQFYCGDTEGKKVMSILLHGDAAFAGQGIVYETFHLSDLPSYTTHGTVHVVVNNQIGFTTDPRMARSSPYPTDVARVVNAPIFHVNSDDPEAVMYVCKVAAEWRNTFHKDVVVDLVCYRRNGHNEMDEPMFTQPLMYKQIRKQKPVLQKYAELLVSQGVVNQPEYEEEISKYDKICEEAFTRSKDEKILHIKHWLDSPWPGFFTLDGQPRSMTCPSTGLEEDVLFHIGKVASSVPVENFTIHGGLSRILKTRRELVTNRTVDWALAEYMAFGSLLKEGIHVRLSGQDVERGTFSHRHHVLHDQNVDKRTCIPMNHLWPNQAPYTVCNSSLSEYGVLGFELGFAMASPNALVLWEAQFGDFNNMAQCIIDQFICPGQAKWVRQNGIVLLLPHGMEGMGPEHSSARPERFLQMCNDDPDVLPDLQEENFDINQLYDCNWIVVNCSTPGNFFHVLRRQILLPFRKPLIVFTPKSLLRHPEARTSFDEMLPGTHFQRVIPENGPAAQDPHKVKRLLFCTGKVYYDLTRERKARNMEEEVAITRIEQLSPFPFDLLLKEAQKYPNAELAWCQEEHKNQGYYDYVKPRLRTTIDRAKPVWYAGRDPAAAPATGNKKTHLTELQRFLDTAFDLDAFKKFS |
| binds | isocitrate dehydrogenase 2 (enzyme, UniProt P54071 40-452) AEKRIKVEKPVVEMDGDEMTRIIWQFIKEKLILPHVDVQLKYFDLGLPNRDQTNDQVTIDSALATQKYSVAVKCATITPDEARVEEFKLKKMWKSPNGTIRNILGGTVFREPIICKNIPRLVPGWTKPITIGRHAHGDQYKATDFVVDRAGTFKLVFTPKDGSSAKEWEVYNFPAGGVGMGMYNTDESISGFAHSCFQYSIQKKWPLYLSTKNTILKAYDGRFKDIFQEIFDKHYKTDFDKNKIWYEHRLIDDMVAQVLKSSGGFVWACKNYDGDVQSDILAQGFGSLGLMTSVLVCPDGKTIEAEAAHGTVTRHYREHQKGRPTSTNPIASIFAWTRGLEHRGKLDGNQDLIRFAQTLEKVCVQTVESGAMTKDLAGCIHGLSNVKLNEHFLNTTDFLDTIKSNLDRALGKQ |

molecular target: histone variant H2A.Z (mouse (endogenous in mouse heart)) (UniProt P0C0S6); assay: affinity purification with mass spectrometry; remark: another data set of the same source

| binding | Molecule |
| --- | --- |
| binds | succinate dehydrogenase complex, subunit A (from UniProt Q8K2B3 43-664) (enzyme) |
| binds | hydroxyacyl-CoA dehydrogenase trifunctional multienzyme complex subunit alpha (from UniProt Q8BMS1 37-763) |

These are yes or no findings as the source states them, for the method shown. Binding seen in cells or lysates may run through a third protein. Here binding means that the protein was enriched with, or labelled near, the bait; the list need not be complete.
